From PubChem BioAssay AID1487 (National Center for Advancing Translational Sciences (NCATS), 2009)
Hit rate of the full screen: of about 200,000 compounds, about 25 (0.01%) were called active. The inconclusive results got no clear call from the source; some entries with a clear call stand among them for comparison. Calls come from the whole dose curve; as a rule, active = well fitted inhibition curve with a large enough effect in the signal ratio, with a control signal flat (not every such curve was filed as active); inconclusive = small, poorly fitted or top-dose-only effect, or effect the other way, or a change in a side signal; inactive = flat fitted curve, though single readings scatter; the % refers to the signal ratio. A potency beside an inconclusive call is a rough fit, not a confirmed value.

experiment: qHTS Assay for Modulators of Lamin A Splicing; details: HeLa LMNA splicing GFP/RFP minigene ratio, 48 h; ratio change, negative = inhibition: at 46.1 µM (top of the series) unless noted
Procedure, shortened: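 S3 HeLa stable clones carrying a lamin A-EGFP splicing minigene plus DsRed2 were seeded at 600 cells/well in Opti-MEM with 2% FBS, pin-dosed and incubated 48 h at 37°C. Acumen cytometry (488 nm) gave the GFP/RFP total-intensity ratio.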
% is set by controls: 0 for no effect and ±100 for the full control effect; potency is the fitted concentration of half-maximal effect.

Compound	ratio change, negative = inhibition	Potency
O=C(Cc1ccccc1)c1c[nH]c(C(=O)NCCCn2ccnc2)c1	inconclusive: -5.99% [at 46 µM]	–
O=C(Nc1cc(S(=O)(=O)Nc2ccc(Cl)cc2)ccc1N1CCCCC1)c1ccc(F)cc1	inconclusive: -42.3%	–
N=C(N)SCc1ccc(Cl)cc1Cl	inconclusive: -46.6%	–
CCOC(=O)c1sc(NC(=O)c2ccco2)nc1-c1ccccc1	inactive: -8.76%	–
CCCN1C(=O)c2ccccc2NC1c1ccc(OC)cc1O (stereo not drawn)	inconclusive: -40.3%	–
CCOC(=O)CSc1nnc(-c2cccnc2)o1	inactive: -2.62%	–
NC(=S)N/N=C\c1ccc(-c2cccc(Cl)c2Cl)o1	–	inconclusive: 6.31 µM [cytotoxic, full curve]
Cc1ccc(/C=C(/C#N)C(=O)NC(=O)Oc2ccccc2)cc1	inactive: -6.29%	–
O=[N+]([O-])c1nn(-c2ccc3c(c2)OCCO3)n(O)c1=NCc1ccc(F)cc1Cl	inconclusive: 25.8% [at 46 µM]	–
O=C(CNS(=O)(=O)c1ccc(C(=O)N2CCOCC2)cc1)N1CCOCC1	inconclusive: -1.66%	–
N/C(=N\OC(=O)c1ccccc1Cl)c1ccncc1	–	inconclusive: 35.5 µM [falling, single point]
CCOC(=O)C(=CNc1ccc(N2CCOCC2)cc1)C(=O)OCC	inconclusive: -10.3% [at 46 µM]	–
Cc1c(Cl)c([N+](=O)[O-])nn1CCCC(=O)Nc1sc2c(c1C(N)=O)CCC(C)C2 (stereo not drawn)	inactive: -8.69%	–
Cc1cccc(C)c1NC(=O)CSc1nnc(CCCCCNC(=O)OC(C)(C)C)o1	inconclusive: -22.8%	–
COc1ccc(N2CCN(C(=O)CSc3nnc(NC(=O)C4CC4)s3)CC2)cc1	inconclusive: -7.73% [at 46 µM]	–
Cc1ccccc1Nc1nc(N)c2ccccc2n1	–	inconclusive: 0.126 µM [inhibitor, full curve, poor fit]
O=C(CCc1ccccc1)N(Cc1cccnc1)c1nc2ccc(F)cc2s1	inactive: -19.1% [at 46 µM]	–
O=C(/C=N/O)Nc1cccnc1	inactive: -11.7%	–
COc1cc(/C=N/NC(=O)c2cc(-c3cccn3C)n[nH]2)cc(OC)c1OC	inactive: -19.7%	–
COc1cccc(N2CCN(c3cnc4ccccc4n3)CC2)c1	inconclusive: -25.9% [at 46 µM]	–
Cc1cc(Br)ccc1SCC(=O)OCC(=O)NC(C)c1ccccc1 (stereo not drawn)	inactive: 8.33%	–

Compound	ratio change, negative = inhibition	Potency
COC(=O)c1c(C)[nH]c(O)c1C=Nc1ccc(Oc2ccccc2)cc1	inconclusive: -30.9% [at 46 µM]	–
CCOc1ccc(C(c2c(NC(=O)c3ccccc3)sc(C)c2C)N2CCN(C)CC2)cc1 (stereo not drawn)	–	inconclusive: 35.5 µM [inhibitor, single point]
COc1ccc(OC)c(Nc2ncnc3c2cnn3-c2cccc(C)c2)c1	inconclusive: -32.4%	–
CCOC(=O)c1c(CSc2ccccc2)n(C)c2ccc(O)c(CN3CCOCC3)c12	inconclusive: -24.5% [at 46 µM]	–
C[N+]1(CC(=O)OCCCC2CCCCC2)CCCC1	inconclusive: 24.8% [at 46 µM]	–
O=C(N/N=C/C(Br)=C\c1ccccc1)c1ccc2nc[nH]c2c1	inconclusive: -19.8%	–
CC(C)NC(=O)COc1ccc(/C=N/NS(=O)(=O)c2ccccc2)cc1	inconclusive: -1.67%	–
Cc1cccc(C)c1NC(=O)CSCC(=O)O	inconclusive: 10.5%	–
COc1ccc(S(=O)(=O)N2CCCCC2)cc1NC(=O)Cc1c[nH]c2ccccc12	inconclusive: 3.79%	–
CC1CCN(c2oc(-c3ccccc3Cl)nc2C#N)CC1	–	inconclusive: 15.8 µM [fluorescent, single point]
O=C(NC1CCCC1)c1ccc2c(=O)n(Cc3ccccc3)c(SCc3ccccc3F)nc2c1	inconclusive: 4.13% [at 46 µM]	–
O=C(c1cc2c(cc1Br)OCCCO2)N1CCCCC1	inactive: 2.76%	–
CCCCc1cc(=O)oc2cc(C)cc(O)c12	inactive: 7.4%	–
Cc1cc(C)c2cc(CN(CC3CCCO3)C(=S)NCc3ccco3)c(=O)[nH]c2c1 (stereo not drawn)	inconclusive: -6.06% [at 46 µM]	–
Cc1ccc(S(=O)(=O)NCCC(=O)OCC(=O)Nc2cccc(S(=O)(=O)NC3=NCCCCC3)c2)cc1	inconclusive: 10.2% [at 9.22 µM]	–
O=C(Nc1ccc(N2CCOCC2)cc1)c1ccc(Cl)nc1	inactive: -8.98%	–
COc1cccc(C(=O)NCCc2csc3nc(-c4ccccc4F)nn23)c1OC	inconclusive: -0.249% [at 46 µM]	–
CCn1c(SCC(=O)Nc2oc(-c3ccccc3)c(-c3ccccc3)c2C#N)nnc1-c1cc(OC)cc(OC)c1	inconclusive: -3.09%	–
O=C(CSc1ccc(-c2ccco2)nn1)NCc1ccccc1	inactive: -8.23%	–
Cc1cc(O)c(C(C)C)cc1NS(=O)(=O)c1ccccc1	inactive: -18.4%	–
Cc1nn(CCc2nn[nH]n2)c2nc(-c3ccc(Br)cc3)cc(C(F)(F)F)c12	inconclusive: -24.6% [at 46 µM]	–

3 entries out of the list, arranged by number of heavy atoms, falling.
Compound	ratio change, negative = inhibition	Potency
O=C(CCc1ccccc1)N(Cc1cccnc1)c1nc2ccc(F)cc2s1	inactive: -19.1% [at 46 µM]	–
O=C(c1cc2c(cc1Br)OCCCO2)N1CCCCC1	inactive: 2.76%	–
N/C(=N\OC(=O)c1ccccc1Cl)c1ccncc1	–	inconclusive: 35.5 µM [falling, single point]

Further results follow:

Compound	ratio change, negative = inhibition	Potency
NC(=Nc1ccccc1)NC(=O)c1nc(Cl)c(N)nc1N	–	inconclusive: 0.02 µM [activator, full curve, poor fit]
CCOC(=O)c1cccc(NC(=O)c2ncoc2-c2ccco2)c1	inconclusive: 7.39% [at 46 µM]	–
O=C(C1CCCC1)N1CCC(CO)(Cc2ccccc2Cl)CC1	inconclusive: -6.63% [at 46 µM]	–
CC(C)N(CC#CCC1(O)c2ccccc2-c2ccccc21)CCO	inactive: -11.3%	–
O=C(CSc1n[nH]c(-c2ccccc2Cl)n1)NCCCc1ccccc1	inconclusive: -15% [at 46 µM]	–
CC(CCc1ccccc1)NC(=O)Cn1c(=O)nc(-c2ccccc2)c2cc(Cl)ccc21 (stereo not drawn)	inconclusive: -32.1% [at 46 µM]	–
O=C(CCS(=O)(=O)c1ccc(Cl)cc1)NCCc1c[nH]c2ccccc12	inactive: -13.8% [at 46 µM]	–
COc1ccccc1-n1c(=S)sc2c(=O)n(Cc3ccco3)c(SC)nc21	inactive: 9.89%	–
COCCNc1c(-c2ccc(OC)c(OC)c2)nc2ccc(Cl)cn12	inconclusive: -37.9% [at 46 µM]	–
COc1ccccc1C1C=C(c2ccc(Cl)cc2)Nc2nc(N3C(=O)CCC3=O)nn21 (stereo not drawn)	inactive: 9.86%	–
Cc1cccc2nc(-c3cccc(NC(=O)Cc4ccccc4)c3)cn12	inactive: -3.88%	–
O=C(NCc1ccc(F)cc1Cl)c1cc(=O)[nH]c2ccc(S(=O)(=O)N3CCCCC3)cc12	inactive: 6.48% [at 46 µM]	–
COc1ccc(CNC(=S)N/N=C/c2ccc(OC)c(OC)c2)cc1	inconclusive: 41.1%	–
O=C(COc1ccc(Cl)cc1Cl)NCc1ccco1	inconclusive: 1.68%	–
Cn1cc(-c2nnnn2-c2ccccc2)c(=O)c2ccccc21	inactive: 7.81%	–
CCOc1ccc(C2c3c(oc4ccccc4c3=O)C(=O)N2CCCN2CCOCC2)cc1 (stereo not drawn)	inactive: -7.48%	–
O=C(CNC(=O)c1ccccc1)OCc1cc(=O)n2nc(C3CCCCC3)sc2n1	inconclusive: 19.5% [at 46 µM]	–
COc1ccc2oc3cc(C)[n+]([O-])c(-c4ccc(C)cc4)c3c2c1	–	inconclusive: 35.5 µM [falling, single point]
O=c1cc(-c2ccc(O)cc2)oc2c([C@@H]3O[C@H](CO)[C@@H](O)[C@H](O)[C@H]3O)c(O)c([C@@H]3O[C@H](CO)[C@@H](O)[C@H](O)[C@H]3O)c(O)c12	inactive: -3.39%	–
Cc1nc(-c2ccc(S(=O)(=O)Nc3cc(Cl)ccc3C)cc2)co1	inactive: -12% [at 46 µM]	–
COC(=O)c1ccccc1NC(=O)c1noc2c1CCC2	inactive: -10.5%	–

Compound	ratio change, negative = inhibition	Potency
O=c1nc(-c2ccccc2)cn[nH]1	inconclusive: 34%	–
COC(=O)c1ccc2c(c1)C(C)(C)C(/C=C/c1ccc(OC)c(OC)c1OC)=[N+]2C	inconclusive: 32.1%	–
COc1ccc(-n2c(Cc3cccn3C)nnc2SCC(=O)Nc2cccc(NC(C)=O)c2)cc1	inactive: 2.45%	–
O=C(Nc1ccc(-c2nc3ccccc3o2)cc1)c1cccnc1	–	inconclusive: 0.398 µM [activator, full curve, poor fit]
COc1ccccc1C1C2=C(N=C3SCC(=O)N31)c1ccccc1CC2 (stereo not drawn)	inconclusive: 14.8%	–
C[N+](C)(C)CC(O)CC(=O)O (stereo not drawn)	inconclusive: 3.05%	–
Cc1cccc(N2C(=O)C(Oc3ccc(Cl)cc3Cl)C2C=O)c1C (stereo not drawn)	inconclusive: -3.1%	–
Cc1ccc(-c2nc3ccccc3[nH]2)s1	inactive: 9.44%	–
Cc1cc(NC(=O)CSCc2ccccc2C)no1	inconclusive: 23.5% [at 46 µM]	–
CC(=O)c1ccc2noc(-c3cccc(C)c3)c2c1	inconclusive: -22.4% [at 46 µM]	–
Cc1noc(C)c1-c1ccc2ncnc(NC3CCNCC3)c2c1	–	inconclusive: 12.6 µM [inhibitor, partial curve]
COc1ccc(C(=O)Nc2cccc(C(=O)OCc3cc(=O)n4nc(C5CC5)sc4n3)c2)cc1	inconclusive: -4.25% [at 46 µM]	–
CCOc1ccc(-n2c(SCC(=O)Nc3cc(C)ccc3C)nc3c([nH]c4ccccc43)c2=O)cc1	inconclusive: 36.4% [at 46 µM]	–
COc1ccc(CNC(=O)c2sc3nc4n(c(=O)c3c2C)CCCC4)cc1	inactive: -7.05% [at 46 µM]	–
COc1ccc(-n2c(N)c(C(=O)NCc3ccco3)c3nc4ccccc4nc32)c(OC)c1	inconclusive: 30.5%	–
CCCCCCn1c(SCC(=O)OC)nc2c1c(=O)[nH]c(=O)n2C	inactive: -2.54%	–
Cc1ccc(Cn2cc(S(=O)(=O)c3cccc(C)c3)c(=O)c3cc(F)c(N4CCOCC4)cc32)cc1	inactive: -4.76% [at 46 µM]	–
Cc1nc(-c2cccnc2)sc1C(N)=O	–	inconclusive: 5.62 µM [cytotoxic, single point]
COc1cccc(Cc2nc3ccccc3nc2SCC(=O)Nc2cccc(C)c2)c1	inconclusive: -0.395% [at 46 µM]	–
C/C(=N\Nc1nnc(-c2ccccc2)c(-c2ccccc2)n1)c1cccc([N+](=O)[O-])c1	inconclusive: -10.2%	–

Looked up by structure from the entries so far (two):
Compound	ratio change, negative = inhibition	Potency
O=C(CCc1ccccc1)N(Cc1cccnc1)c1nc2ccc(F)cc2s1	inactive: -19.1% [at 46 µM]	–
O=C(CSc1n[nH]c(-c2ccccc2Cl)n1)NCCCc1ccccc1	inconclusive: -15% [at 46 µM]	–
